Laboratory results from patent US20030040605A1.
Results are given in words; binding and its absence hold for the method and conditions named. Some results given as binding are weak or reduced against the parent protein; the word gives no strength.

Chains of the proteins cited; added tags and fusions are not shown. Residues count along the entry.
UniProt Q02161, residues 2-417: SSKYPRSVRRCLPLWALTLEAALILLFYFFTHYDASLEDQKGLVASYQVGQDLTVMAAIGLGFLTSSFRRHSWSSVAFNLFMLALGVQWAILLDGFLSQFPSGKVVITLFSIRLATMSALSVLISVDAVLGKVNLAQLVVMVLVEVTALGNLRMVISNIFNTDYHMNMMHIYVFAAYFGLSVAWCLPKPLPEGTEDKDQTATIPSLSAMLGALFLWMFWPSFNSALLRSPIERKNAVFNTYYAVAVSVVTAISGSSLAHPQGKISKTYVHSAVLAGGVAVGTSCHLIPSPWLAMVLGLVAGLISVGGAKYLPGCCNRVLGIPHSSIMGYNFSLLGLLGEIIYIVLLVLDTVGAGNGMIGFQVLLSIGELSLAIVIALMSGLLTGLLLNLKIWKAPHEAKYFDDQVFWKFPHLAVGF

Molecular target: human Rh(D) antigen (human) (UniProt Q02161)
Assay: indirect agglutination (anti-M13), Fab/phage

Row | Binder | binding
1 | SH34 (Fab, V domains shown) VH: EVQLLESGGGVVQPGRSLRLSCAASGFSFSSYGMHWVRQAPGKGLEWVAVISYDGTNKYFADSVKGRFTISRDNSKKTLYLQMTSLRPEDTAVYFCANLRGEVTRRASVPLDIWGQGTMVTVSS VL: AELTQSPSSLSASVGDRVTITCRASQSISSYLNWYQQKPGKAPKLLIYAASGLQSGVPSRFSGSGSGTDFTLTISSLQPEDFATYYCQQSYSTPPYTFGQGTKLEIKR | binds
2 | SH48 (Fab, V domains shown) VH: EVQLLESGGGVVQPGRSLRLSCAASGFSFSSYGMHWVRQAPGKGLEWVAVISYDGTNKYFADSVKGRFTISRDNSKKTLYLQMTSLRPEDTAVYFCANLRGEVTRRASVPLDIWGQGTMVTVSS VL: AELTQSPSSLSASVGDRVTITCRASQYISSYLNWYQQKPGKAPNLLIYAASSLQSGVPSRFSGSGSGTDFTLTISSLQPEDFATYYCQQTYSSPSTFGPGTKVDIKR | binds
3 | SH24 (Fab, V domains shown) VH: EVQLLESGGGVAQPGRSLRLSCVASGFSLRSYGMHWVRQAPGKGLEWVADIWFDGSNKDYADSVKGRFTISRDNSKNTLYLQMNSLRAEDTAVYYCARDWRVRAFSSGWLSAFDIWGQGTMVTVSS VL: AELTQSPSSLSASVGDRVTITCRASQSISTYLNWYQQRPGKAPNLLIYAASTLQRGVPSRFTGSGSGTDFTLTISSLQPEDFATYYCQQSYTTLWTFGQGTKMEIRR | binds

Other lines, results leading:

Row | binding | Binder
4 | binds | SH32 (Fab, V domains shown) VH: EVQLLESGGGVVQPGRSLRLSCEASKFTLYNYGMHWVRQAPGKGLEWVAFIWFDGSNKYYEDSVKGRFTVSRDNSKNTLYLQMNSLRAEDTAVYYCARELSKKVALSRYYYYMDVWGQGTTVTVSS VL: AELTQEPSLTVSPGGTVTLTCASSTGAVTSRYFPNWFQQKPGQAPRALIYGSNNKHSWTPARFSGSLLGGKAALTLSGVQPEDEAEYYCLLFYAGAWAFGGGTKLTVL
5 | binds | SH46 (Fab, V domains shown) VH: VQLLEESGGGVVQPGRSLRLSCAASGFTFSSYGMHWVRQAPGRGLEWVALIWYDGGNKEYADSVKGRFSISRDNSKNTLYLQVNSLRADDTAVYYCARDQRAAAGIFYYSRMDVWGQGTTVTVSS VL: AELTQSPSSLSASVGDRVTITCRASQYISSYLNWYQQKPGKAPNLLIYAASSLQSGVPSRFSGSGSGTDFTLTISSLQPEDFATYYCQQTYSSPSTFGPGTKVDIKR
6 | binds | SH44 (Fab, V domains shown) VH: EVQLLESGGGVAQPGRSLRLSCVASGFSLRSYGMHWVRQAPGKGLEWVADIWFDGSNKDYADSVKGRFTISRDNSKNTLYLQMNSLRAEDTAVYYCARDWRVRAFSSGWLSAFDIWGQGTMVTVSS VL: AELTQSPSSLSASVGDRVIITCRASQTIPRFLNWYQQKPGKAPVLLIHSISSLQSGVPSRFSASGSGTEFTLTISSLQPEDFATYYCQQSYSNLSFGPGTTVDIRR

Molecular target: human Rh(D) antigen (human) (UniProt Q02161)
Assay: indirect agglutination (anti-M13), Fab/phage; footnote: weak

Row | binding | Binder
7 | binds | SH44 (Fab, V domains shown) VH: EVQLLESGGGVAQPGRSLRLSCVASGFSLRSYGMHWVRQAPGKGLEWVADIWFDGSNKDYADSVKGRFTISRDNSKNTLYLQMNSLRAEDTAVYYCARDWRVRAFSSGWLSAFDIWGQGTMVTVSS VL: AELTQSPSSLSASVGDRVIITCRASQTIPRFLNWYQQKPGKAPVLLIHSISSLQSGVPSRFSASGSGTEFTLTISSLQPEDFATYYCQQSYSNLSFGPGTTVDIRR
